Test system: neurological EAE in the Lewis rat

Row | Compound | body weight loss beginning (500 mg/kg/day) | Body weight loss began later than recorded in other treatments (low and high dose (750 and 1000 mg/kg/day))
1 | CCC=CCC=CCC=CCC=CCC=CC/C=C\CCC(=O)OCCCOC(=O)CCCCCCCCCCCCC/C=C\CCCCCCCC [NA:DHA, 1-(z-15-tetracosenoyloxy)-3-(z-4,7,10,13,16,19-docosahexaenoyloxy)propane] | 8 days after inoculation | –
2 | CCCCC/C=C\C/C=C\C/C=C\CCCCC(=O)OCCCOC(=O)CCCCCCCCCCCCC/C=C\CCCCCCCC [NA:GLA, 1-(z-15-tetracosenoyloxy)-3-(z,z,z-6,9,12-octadecatrienoyloxy)propane] | – | 2 days
